Measured values as given in patent US20040132188A1, “Use of non-complexing peptides for the preparation of a composition for transfection of a polynucleotide into a cell and compositions useful in gene therapy” (priority 2001, published 2004).
At least one peptide structure holds a part that was inferred or is arguable (an end, a ring closure or a residue). Ends that are not written are not given here.

Test: Liposome leakage assay, POPC/cholesterol 3:2 liposomes
Type: biochemical
Conditions: POPC/chol liposomes, pH 7
Excerpt: FIG. 9: Liposome leakage assay. […] Emitted fluorescence was plotted against peptide concentration. […] C) Comparison of ppTG1, ppTG20 and ppTG21 at pH 7.
Leakage activity was plotted against peptide concentration.

GLFRALLRLLRSLWRLLLRA [ppTG20]
liposome leakage activity / calcein release: comparable to ppTG1
